# According to PMC5612949:
# Sequences of proteins named here, by UniProt entry; tags and fusion partners are left off.
# UniProt Q9UKL0: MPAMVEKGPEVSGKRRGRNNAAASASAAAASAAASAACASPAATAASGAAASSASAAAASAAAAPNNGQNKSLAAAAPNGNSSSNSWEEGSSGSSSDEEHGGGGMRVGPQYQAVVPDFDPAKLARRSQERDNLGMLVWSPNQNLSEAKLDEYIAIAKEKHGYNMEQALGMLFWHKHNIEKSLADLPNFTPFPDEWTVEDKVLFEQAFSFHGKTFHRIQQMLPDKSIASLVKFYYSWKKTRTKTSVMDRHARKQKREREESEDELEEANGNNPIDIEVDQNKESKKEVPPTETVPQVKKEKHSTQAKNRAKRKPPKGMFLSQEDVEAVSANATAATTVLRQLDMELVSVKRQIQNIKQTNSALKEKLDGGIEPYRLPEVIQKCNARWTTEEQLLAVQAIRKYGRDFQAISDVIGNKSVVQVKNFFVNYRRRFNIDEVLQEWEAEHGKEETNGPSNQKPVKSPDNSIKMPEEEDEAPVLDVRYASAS
# UniProt Q09028: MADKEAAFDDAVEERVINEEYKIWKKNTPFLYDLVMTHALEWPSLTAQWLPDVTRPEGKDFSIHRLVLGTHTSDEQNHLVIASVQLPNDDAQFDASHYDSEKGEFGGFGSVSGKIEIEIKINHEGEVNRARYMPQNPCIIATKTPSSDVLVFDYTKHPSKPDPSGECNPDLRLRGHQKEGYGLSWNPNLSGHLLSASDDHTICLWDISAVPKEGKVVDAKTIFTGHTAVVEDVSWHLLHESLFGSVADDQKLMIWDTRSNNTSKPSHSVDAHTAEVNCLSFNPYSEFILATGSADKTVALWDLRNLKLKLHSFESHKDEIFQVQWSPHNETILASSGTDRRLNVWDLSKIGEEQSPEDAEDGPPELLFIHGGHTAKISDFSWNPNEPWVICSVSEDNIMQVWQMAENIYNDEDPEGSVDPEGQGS
# UniProt Q93008: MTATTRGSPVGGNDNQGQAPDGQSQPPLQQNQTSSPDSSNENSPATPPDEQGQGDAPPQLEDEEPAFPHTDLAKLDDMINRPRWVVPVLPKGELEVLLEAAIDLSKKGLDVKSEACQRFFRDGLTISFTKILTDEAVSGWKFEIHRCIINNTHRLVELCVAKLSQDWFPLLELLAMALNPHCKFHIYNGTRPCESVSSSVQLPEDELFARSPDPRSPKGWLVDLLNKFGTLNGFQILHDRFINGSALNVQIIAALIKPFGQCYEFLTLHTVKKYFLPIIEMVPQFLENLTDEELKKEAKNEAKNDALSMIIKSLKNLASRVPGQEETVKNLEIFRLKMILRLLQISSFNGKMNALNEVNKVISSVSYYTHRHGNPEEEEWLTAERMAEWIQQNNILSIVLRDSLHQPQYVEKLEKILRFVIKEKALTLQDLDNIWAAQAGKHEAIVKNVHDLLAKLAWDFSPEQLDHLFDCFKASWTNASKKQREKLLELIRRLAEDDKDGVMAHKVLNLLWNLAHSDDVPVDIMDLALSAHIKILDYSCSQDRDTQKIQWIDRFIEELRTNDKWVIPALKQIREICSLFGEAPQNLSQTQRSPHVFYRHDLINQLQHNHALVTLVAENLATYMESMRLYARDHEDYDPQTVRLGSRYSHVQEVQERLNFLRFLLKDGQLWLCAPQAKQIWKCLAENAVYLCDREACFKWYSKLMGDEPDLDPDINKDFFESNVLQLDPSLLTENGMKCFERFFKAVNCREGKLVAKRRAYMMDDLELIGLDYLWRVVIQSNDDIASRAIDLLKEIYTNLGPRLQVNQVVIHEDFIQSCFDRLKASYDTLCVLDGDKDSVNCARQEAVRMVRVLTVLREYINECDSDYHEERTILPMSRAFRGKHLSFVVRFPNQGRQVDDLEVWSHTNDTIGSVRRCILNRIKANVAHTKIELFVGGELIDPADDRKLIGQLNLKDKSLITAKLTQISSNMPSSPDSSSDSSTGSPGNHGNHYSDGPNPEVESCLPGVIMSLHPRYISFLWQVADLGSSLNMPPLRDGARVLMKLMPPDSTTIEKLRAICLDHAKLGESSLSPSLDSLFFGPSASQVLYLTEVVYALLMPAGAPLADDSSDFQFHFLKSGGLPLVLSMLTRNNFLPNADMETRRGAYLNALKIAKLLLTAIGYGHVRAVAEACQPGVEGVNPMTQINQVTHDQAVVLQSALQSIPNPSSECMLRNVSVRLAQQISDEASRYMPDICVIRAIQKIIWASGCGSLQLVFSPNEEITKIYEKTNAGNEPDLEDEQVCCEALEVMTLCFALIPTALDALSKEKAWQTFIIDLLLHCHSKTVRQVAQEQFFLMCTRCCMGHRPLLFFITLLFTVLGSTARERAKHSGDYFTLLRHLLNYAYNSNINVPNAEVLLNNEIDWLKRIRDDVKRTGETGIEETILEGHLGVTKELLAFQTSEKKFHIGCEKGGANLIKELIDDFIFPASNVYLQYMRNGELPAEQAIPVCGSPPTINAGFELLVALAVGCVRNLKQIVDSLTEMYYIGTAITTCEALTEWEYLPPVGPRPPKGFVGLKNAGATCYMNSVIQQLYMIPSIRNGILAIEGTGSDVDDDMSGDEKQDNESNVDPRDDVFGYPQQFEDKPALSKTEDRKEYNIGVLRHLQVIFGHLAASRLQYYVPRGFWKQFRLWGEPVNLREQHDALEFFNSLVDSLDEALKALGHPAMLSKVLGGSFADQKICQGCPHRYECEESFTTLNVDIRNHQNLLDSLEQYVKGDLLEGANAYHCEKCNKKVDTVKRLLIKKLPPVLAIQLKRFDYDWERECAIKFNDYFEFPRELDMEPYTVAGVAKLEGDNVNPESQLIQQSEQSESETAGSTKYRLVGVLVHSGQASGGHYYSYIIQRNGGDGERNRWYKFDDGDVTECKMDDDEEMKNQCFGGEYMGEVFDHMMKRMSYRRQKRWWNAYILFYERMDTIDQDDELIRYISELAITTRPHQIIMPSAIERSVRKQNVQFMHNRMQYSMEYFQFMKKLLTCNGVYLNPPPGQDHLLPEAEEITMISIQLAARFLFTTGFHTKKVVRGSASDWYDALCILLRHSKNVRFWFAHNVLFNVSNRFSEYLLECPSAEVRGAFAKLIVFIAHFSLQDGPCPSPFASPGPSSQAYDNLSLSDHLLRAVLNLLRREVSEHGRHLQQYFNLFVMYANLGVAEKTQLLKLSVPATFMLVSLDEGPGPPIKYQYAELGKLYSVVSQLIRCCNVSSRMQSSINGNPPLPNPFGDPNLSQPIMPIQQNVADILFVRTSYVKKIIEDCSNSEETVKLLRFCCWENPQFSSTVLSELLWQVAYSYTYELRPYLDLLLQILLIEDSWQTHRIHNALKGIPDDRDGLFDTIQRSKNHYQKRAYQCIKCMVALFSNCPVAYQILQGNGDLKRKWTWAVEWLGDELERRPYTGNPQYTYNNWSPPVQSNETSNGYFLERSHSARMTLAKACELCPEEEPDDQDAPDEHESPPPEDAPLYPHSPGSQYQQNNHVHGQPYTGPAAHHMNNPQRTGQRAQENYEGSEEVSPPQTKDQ
# Results are given in words; binding and its absence hold for the method and conditions named. Binding seen in cells or lysates may run through a third protein. Here binding means that the protein was enriched with, or labelled near, the bait; the list need not be complete. Tags and fused reporters may be left off the sequences shown.
# T1: FLAG-tagged ZNF516 (Zinc-finger protein 516) (human) (UniProt Q92618)
# T1 sequence: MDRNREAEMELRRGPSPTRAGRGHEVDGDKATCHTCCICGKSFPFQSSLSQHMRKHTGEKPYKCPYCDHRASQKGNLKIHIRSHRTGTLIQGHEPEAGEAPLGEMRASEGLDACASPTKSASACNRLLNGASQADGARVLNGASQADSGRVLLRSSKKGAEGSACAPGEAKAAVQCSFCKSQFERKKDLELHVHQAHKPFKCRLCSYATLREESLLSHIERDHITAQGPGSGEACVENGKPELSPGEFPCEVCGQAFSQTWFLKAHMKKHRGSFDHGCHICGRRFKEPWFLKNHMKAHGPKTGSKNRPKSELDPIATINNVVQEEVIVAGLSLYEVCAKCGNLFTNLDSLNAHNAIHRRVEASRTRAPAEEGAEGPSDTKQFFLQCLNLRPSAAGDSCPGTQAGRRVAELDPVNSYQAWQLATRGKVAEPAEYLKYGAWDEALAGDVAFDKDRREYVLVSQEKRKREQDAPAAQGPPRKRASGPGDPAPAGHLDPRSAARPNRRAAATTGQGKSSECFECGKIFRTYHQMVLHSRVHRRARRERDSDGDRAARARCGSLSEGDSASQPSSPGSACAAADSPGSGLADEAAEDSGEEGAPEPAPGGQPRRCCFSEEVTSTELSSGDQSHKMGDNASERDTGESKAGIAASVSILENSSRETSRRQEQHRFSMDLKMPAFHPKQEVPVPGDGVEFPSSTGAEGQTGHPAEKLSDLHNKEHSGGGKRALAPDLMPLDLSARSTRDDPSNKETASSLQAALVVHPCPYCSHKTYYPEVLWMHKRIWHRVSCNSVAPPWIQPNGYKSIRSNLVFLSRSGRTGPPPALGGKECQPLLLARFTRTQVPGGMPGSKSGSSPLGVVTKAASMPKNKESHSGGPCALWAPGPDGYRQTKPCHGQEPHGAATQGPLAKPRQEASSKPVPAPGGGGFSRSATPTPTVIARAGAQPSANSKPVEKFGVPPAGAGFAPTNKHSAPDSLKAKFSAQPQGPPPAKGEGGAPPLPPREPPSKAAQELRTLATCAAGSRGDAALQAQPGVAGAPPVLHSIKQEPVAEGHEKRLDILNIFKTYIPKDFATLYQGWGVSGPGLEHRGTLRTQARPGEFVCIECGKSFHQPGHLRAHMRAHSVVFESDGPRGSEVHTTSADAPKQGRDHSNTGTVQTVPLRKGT
# B1: ZEB2, endogenous (protein, UniProt O60315 1-1214)
# chain: MKQPIMADGPRCKRRKQANPRRKNVVNYDNVVDTGSETDEEDKLHIAEDDGIANPLDQETSPASVPNHESSPHVSQALLPREEEEDEIREGGVEHPWHNNEILQASVDGPEEMKEDYDTMGPEATIQTAINNGTVKNANCTSDFEEYFAKRKLEERDGHAVSIEEYLQRSDTAIIYPEAPEELSRLGTPEANGQEENDLPPGTPDAFAQLLTCPYCDRGYKRLTSLKEHIKYRHEKNEENFSCPLCSYTFAYRTQLERHMVTHKPGTDQHQMLTQGAGNRKFKCTECGKAFKYKHHLKEHLRIHSGEKPYECPNCKKRFSHSGSYSSHISSKKCIGLISVNGRMRNNIKTGSSPNSVSSSPTNSAITQLRNKLENGKPLSMSEQTGLLKIKTEPLDFNDYKVLMATHGFSGTSPFMNGGLGATSPLGVHPSAQSPMQHLGVGMEAPLLGFPTMNSNLSEVQKVLQIVDNTVSRQKMDCKAEEISKLKGYHMKDPCSQPEEQGVTSPNIPPVGLPVVSHNGATKSIIDYTLEKVNEAKACLQSLTTDSRRQISNIKKEKLRTLIDLVTDDKMIENHNISTPFSCQFCKESFPGPIPLHQHERYLCKMNEEIKAVLQPHENIVPNKAGVFVDNKALLLSSVLSEKGMTSPINPYKDHMSVLKAYYAMNMEPNSDELLKISIAVGLPQEFVKEWFEQRKVYQYSNSRSPSLERSSKPLAPNSNPPTKDSLLPRSPVKPMDSITSPSIAELHNSVTNCDPPLRLTKPSHFTNIKPVEKLDHSRSNTPSPLNLSSTSSKNSHSSSYTPNSFSSEELQAEPLDLSLPKQMKEPKSIIATKNKTKASSISLDHNSVSSSSENSDEPLNLTFIKKEFSNSNNLDNKSTNPVFSMNPFSAKPLYTALPPQSAFPPATFMPPVQTSIPGLRPYPGLDQMSFLPHMAYTYPTGAATFADMQQRRKYQRKQGFQGELLDGAQDYMSGLDDMTDSDSCLSRKKIKKTESGMYACDLCDKTFQKSSSLLRHKYEHTGKRPHQCQICKKAFKHKHHLIEHSRLHSGEKPYQCDKCGKRFSHSGSYSQHMNHRYSYCKREAEEREAAEREAREKGHLEPTELLMNRAYLQSITPQGYSDSEERESMPRDGESEKEHEKEGEDGYGKLGRQDGDEEFEEEEEESENKSMDTDPETIRDEEETGDHSMDDSSEDGKMETKSDHEEDNMEDGM
# Molecular target: T1, FLAG-tagged ZNF516 (Zinc-finger protein 516) (human)
# Experiment: affinity purification with mass spectrometry; whole-cell extracts of HEK293T stably expressing FLAG-ZNF516 on anti-FLAG M2 affinity gel column, washed with cold PBS plus 0.1% Nonidet P-40, eluted with FLAG peptide, SDS-PAGE, silver stain, LC-MS/MS of bands
row,binding,Molecule
1,binds,"CoREST (corepressor of RE1 silencing transcription factor), endogenous (from UniProt Q9UKL0 1-485)"
2,binds,"CtBP2 (C-terminal binding protein 2), endogenous (from UniProt P56545 1-445)"
3,binds,"RBBP4, endogenous (from UniProt Q09028 1-425)"
4,binds,"USP9X, endogenous (from UniProt Q93008 1-2554)"
5,binds,B1
